Results are given in words; binding and its absence hold for the method and conditions named. In cells and extracts the contact can be indirect. Here binding means that the protein was enriched with, or labelled near, the bait; the list need not be complete. Where a sequence is shown, tags or fusion partners need not be part of it.
Target: T1, His14-Sec61S353C (S. cerevisiae) (UniProt P32915)
T1 sequence: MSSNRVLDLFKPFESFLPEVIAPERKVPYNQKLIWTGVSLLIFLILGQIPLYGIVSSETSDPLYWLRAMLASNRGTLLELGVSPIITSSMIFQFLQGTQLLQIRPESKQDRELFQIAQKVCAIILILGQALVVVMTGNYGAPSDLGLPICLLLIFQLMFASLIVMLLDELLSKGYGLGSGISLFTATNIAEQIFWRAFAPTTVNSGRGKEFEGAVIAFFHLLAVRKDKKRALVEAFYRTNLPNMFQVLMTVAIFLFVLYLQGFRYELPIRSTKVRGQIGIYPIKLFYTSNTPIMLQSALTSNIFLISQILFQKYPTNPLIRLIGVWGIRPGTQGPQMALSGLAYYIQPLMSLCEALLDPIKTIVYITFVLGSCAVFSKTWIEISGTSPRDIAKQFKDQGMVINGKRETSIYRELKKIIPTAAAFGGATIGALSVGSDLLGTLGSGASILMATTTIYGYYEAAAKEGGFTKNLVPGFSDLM
Test: cross-linking + affinity purification with mass spectrometry

binding: binds
B1: Mpd1 (protein, UniProt Q12404 22-318)
chain: QNFYDSDPHISELTPKSFDKAIHNTNYTSLVEFYAPWCGHCKKLSSTFRKAAKRLDGVVQVAAVNCDLNKNKALCAKYDVNGFPTLMVFRPPKIDLSKPIDNAKKSFSAHANEVYSGARTLAPIVDFSLSRIRSYVKKFVRIDTLGSLLRKSPKLSVVLFSKQDKISPVYKSIALDWLGKFDFYSISNKKLKQLTDMNPTYEKTPEIFKYLQKVIPEQRQSDKSKLVVFDADKDKFWEYEGNSINKNDISKFLRDTFSITPNEGPFSRRSEYIAYLKTGKKPIKKNHSSSGNKHDEL
